Experimental findings from article doi:10.1101/2021.12.08.471817 are described below.

The target of assay [1] is S. cerevisiae pseudouridine synthase PUS1 D134A, catalytically inactive, tagless (S. cerevisiae) (UniProt Q12211). Description: crystal structure.
For assay [2], the target named is S. cerevisiae pseudouridine synthase PUS1, wild type, tagless (S. cerevisiae) (UniProt Q12211). Description: crystal structure.

These are yes or no findings as the source states them, for the method shown. Sequences can lack the tags named with a protein.

B1: S. cerevisiae pseudouridine synthase PUS1 D134A, catalytically inactive, tagless (enzyme, UniProt Q12211 1-544)
chain: MSEENLRPAYDDQVNEDVYKRGAQSKLTKARKADFDDEKDKKKDNDKHIDKRPKSGPRLDENGNPLPKEPRLPKRKVAVMVGYCGTGYHGMQYNPPNPTIESALFKAFVEAGAISKDNSNDLKKNGFMRAARTAKGVHAGGNLISLKMIIEDPDIKQKINEKLPEGIRVWDIERVNKAFDCRKMCSSRWYEYLLPTYSLIGPKPGSILYRDIEESKTELPGVLDEDLESKEFWEEFKKDANEKFSTEEIEAILAYVPPARDEFDINEELYQKVKKYKQLENAHRRRYRISAAKLAKFRASTSQYLGAHNFHNFTLGKDFKEPSAIRFMKDIKVSDPFVIGDAQTEWISIKIHGQSFMLHQIRKMVSMATLITRCGCPVERISQAYGQQKINIPKAPALGLLLEAPVFEGYNKRLEQFGYKAIDFSKYQDEVDKFKMKHIYDKIYKEEVDENVFNAFFSYIDSFNKVTGAQGEETADKSGPAVQKSIFEFLTAKGIPGLTDAPESNKKIKQRKRMEEEEAASKKAEISSTTQSNEPEVQPEAAAN
Regarding B1, the binding result in assay [1] was “no binding”.

B2: S. cerevisiae pseudouridine synthase PUS1, wild type, tagless (enzyme, UniProt Q12211 1-544)
chain: MSEENLRPAYDDQVNEDVYKRGAQSKLTKARKADFDDEKDKKKDNDKHIDKRPKSGPRLDENGNPLPKEPRLPKRKVAVMVGYCGTGYHGMQYNPPNPTIESALFKAFVEAGAISKDNSNDLKKNGFMRAARTDKGVHAGGNLISLKMIIEDPDIKQKINEKLPEGIRVWDIERVNKAFDCRKMCSSRWYEYLLPTYSLIGPKPGSILYRDIEESKTELPGVLDEDLESKEFWEEFKKDANEKFSTEEIEAILAYVPPARDEFDINEELYQKVKKYKQLENAHRRRYRISAAKLAKFRASTSQYLGAHNFHNFTLGKDFKEPSAIRFMKDIKVSDPFVIGDAQTEWISIKIHGQSFMLHQIRKMVSMATLITRCGCPVERISQAYGQQKINIPKAPALGLLLEAPVFEGYNKRLEQFGYKAIDFSKYQDEVDKFKMKHIYDKIYKEEVDENVFNAFFSYIDSFNKVTGAQGEETADKSGPAVQKSIFEFLTAKGIPGLTDAPESNKKIKQRKRMEEEEAASKKAEISSTTQSNEPEVQPEAAAN
Consider B2, for which, in assay [2], the binding entry is listed as “no binding”.
